Measured values published in PMC9623568.
No constants are given. Whether binding was seen depends on the method and setting. In cells and extracts the contact can be indirect. Some entries that bind do so weakly or less than the wild type.

The chains behind the UniProt entries cited, without tags or fusion partners. Residues count along the entry.
UniProt Q03135: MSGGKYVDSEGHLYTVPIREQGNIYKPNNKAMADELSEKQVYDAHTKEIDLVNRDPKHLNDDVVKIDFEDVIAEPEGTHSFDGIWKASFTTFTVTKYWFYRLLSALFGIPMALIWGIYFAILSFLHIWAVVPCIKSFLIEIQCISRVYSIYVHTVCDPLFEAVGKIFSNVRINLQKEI
UniProt Q00610: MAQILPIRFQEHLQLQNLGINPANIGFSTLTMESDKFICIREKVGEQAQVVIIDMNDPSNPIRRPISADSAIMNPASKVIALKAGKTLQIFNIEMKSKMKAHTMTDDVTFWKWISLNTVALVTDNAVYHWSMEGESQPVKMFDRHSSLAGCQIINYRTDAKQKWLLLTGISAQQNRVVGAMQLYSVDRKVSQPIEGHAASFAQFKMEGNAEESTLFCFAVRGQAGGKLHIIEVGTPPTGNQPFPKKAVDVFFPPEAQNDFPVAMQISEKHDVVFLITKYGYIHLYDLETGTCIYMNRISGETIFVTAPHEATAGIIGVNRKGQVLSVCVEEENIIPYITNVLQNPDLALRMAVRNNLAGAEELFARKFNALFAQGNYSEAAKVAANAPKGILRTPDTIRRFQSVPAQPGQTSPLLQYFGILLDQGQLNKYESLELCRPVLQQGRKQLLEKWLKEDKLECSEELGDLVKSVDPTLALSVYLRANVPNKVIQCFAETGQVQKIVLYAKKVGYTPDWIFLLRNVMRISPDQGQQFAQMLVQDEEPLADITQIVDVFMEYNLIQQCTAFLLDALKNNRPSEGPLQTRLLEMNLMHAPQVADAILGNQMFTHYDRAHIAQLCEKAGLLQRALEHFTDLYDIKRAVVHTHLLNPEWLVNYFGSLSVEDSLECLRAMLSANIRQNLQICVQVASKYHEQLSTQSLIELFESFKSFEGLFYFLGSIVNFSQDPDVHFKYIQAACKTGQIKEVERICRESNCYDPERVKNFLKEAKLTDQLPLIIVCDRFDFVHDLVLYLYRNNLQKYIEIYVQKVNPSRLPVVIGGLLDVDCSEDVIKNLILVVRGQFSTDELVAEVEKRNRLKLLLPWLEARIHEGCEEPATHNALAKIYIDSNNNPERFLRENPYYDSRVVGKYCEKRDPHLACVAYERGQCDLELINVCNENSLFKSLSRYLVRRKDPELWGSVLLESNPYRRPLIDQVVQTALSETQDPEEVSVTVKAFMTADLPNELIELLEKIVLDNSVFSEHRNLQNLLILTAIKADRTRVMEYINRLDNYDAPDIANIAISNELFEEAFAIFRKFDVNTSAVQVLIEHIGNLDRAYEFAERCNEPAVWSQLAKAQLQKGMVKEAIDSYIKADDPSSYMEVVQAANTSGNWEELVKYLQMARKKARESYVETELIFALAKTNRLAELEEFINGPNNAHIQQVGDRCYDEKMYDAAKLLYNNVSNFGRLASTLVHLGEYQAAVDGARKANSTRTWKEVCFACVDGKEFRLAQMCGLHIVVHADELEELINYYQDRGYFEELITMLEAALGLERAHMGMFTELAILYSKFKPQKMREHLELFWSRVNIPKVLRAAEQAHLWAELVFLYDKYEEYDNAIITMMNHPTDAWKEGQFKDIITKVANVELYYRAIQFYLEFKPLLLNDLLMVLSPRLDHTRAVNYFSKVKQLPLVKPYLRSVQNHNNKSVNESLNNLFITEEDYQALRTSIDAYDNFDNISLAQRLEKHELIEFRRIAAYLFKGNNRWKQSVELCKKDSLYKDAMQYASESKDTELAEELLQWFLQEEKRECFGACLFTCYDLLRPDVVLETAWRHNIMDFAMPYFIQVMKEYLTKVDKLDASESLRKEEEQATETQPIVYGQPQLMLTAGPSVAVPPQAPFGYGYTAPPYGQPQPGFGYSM
UniProt O75581, residues 20-1613: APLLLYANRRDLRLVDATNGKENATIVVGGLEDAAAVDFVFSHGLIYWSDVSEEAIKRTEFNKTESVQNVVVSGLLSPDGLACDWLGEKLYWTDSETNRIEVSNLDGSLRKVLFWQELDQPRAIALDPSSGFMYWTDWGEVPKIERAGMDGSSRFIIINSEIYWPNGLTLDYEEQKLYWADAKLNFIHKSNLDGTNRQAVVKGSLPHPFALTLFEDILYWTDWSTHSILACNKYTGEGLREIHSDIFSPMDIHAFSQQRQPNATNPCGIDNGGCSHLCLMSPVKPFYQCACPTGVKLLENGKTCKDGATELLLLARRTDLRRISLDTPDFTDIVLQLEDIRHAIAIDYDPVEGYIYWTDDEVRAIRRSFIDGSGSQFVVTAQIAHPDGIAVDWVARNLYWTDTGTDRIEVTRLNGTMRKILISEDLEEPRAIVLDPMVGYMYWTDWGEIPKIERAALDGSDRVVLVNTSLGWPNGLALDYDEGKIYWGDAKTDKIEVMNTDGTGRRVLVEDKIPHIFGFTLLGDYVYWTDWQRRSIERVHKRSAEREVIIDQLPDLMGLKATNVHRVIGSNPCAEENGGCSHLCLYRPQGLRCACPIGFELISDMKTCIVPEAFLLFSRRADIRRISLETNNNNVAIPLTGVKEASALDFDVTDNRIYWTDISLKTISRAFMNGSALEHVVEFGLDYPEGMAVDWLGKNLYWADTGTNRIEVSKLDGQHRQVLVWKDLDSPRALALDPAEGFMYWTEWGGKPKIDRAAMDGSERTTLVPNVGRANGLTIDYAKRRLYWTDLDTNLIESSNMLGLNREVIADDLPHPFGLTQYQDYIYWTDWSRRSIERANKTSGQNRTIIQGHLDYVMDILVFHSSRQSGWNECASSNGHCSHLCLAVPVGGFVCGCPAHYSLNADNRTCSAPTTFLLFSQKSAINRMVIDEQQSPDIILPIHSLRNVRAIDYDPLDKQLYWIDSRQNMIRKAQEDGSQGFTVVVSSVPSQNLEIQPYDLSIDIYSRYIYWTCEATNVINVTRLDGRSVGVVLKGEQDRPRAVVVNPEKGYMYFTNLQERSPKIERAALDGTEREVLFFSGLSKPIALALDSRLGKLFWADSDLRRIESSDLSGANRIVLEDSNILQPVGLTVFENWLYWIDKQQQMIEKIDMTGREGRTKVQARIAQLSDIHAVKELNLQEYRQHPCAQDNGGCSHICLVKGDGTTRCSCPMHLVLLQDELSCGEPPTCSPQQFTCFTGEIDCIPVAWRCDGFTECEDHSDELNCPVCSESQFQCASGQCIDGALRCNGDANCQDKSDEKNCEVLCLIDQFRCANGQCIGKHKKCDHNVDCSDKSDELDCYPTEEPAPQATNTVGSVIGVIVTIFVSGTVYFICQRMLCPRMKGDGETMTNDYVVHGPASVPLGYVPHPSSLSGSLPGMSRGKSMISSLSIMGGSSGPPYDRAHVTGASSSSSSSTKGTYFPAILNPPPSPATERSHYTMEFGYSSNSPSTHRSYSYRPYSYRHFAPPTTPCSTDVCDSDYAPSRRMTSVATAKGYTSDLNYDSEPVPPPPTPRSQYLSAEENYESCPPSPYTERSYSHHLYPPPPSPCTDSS
UniProt P49841: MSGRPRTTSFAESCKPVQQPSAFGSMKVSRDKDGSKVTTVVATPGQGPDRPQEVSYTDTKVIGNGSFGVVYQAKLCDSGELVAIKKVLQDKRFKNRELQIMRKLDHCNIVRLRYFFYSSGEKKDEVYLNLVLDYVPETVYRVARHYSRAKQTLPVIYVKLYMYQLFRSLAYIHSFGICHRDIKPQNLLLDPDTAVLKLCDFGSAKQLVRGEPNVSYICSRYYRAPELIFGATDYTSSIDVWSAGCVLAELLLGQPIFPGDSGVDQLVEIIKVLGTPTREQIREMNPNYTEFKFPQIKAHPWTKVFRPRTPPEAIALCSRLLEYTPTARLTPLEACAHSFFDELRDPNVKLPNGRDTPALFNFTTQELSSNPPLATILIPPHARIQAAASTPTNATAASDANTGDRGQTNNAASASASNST

Experiments:
Assay in all cases: co-IP; Triton X-100 (1%) insoluble fractions of vector- or DAB2 cDNA-transfected SW480-FR cells, with or without WNT3A for 12 hours; pooled OptiPrep raft (3-4) and non-raft (7-8) fractions immunoprecipitated with anti-caveolin-1 or anti-clathrin; Western blot
[1] = target: caveolin-1, endogenous (human (endogenous in SW480-FR)) (UniProt Q03135)
[2] = target: clathrin, endogenous (human (endogenous in SW480-FR)) (UniProt Q00610)
[3] = target: LRP6, endogenous (human (endogenous in SW480-FR)) (UniProt O75581)

binding [1] | binding [2] | binding [3] | Molecule
binds | no binding | – | GSK3β, endogenous (from UniProt P49841 1-420) (enzyme)
– | – | binds | DAB2 (disabled-2), ectopically expressed (protein, UniProt P98082 1-770) MSNEVETSATNGQPDQQAAPKAPSKKEKKKGPEKTDEYLLARFKGDGVKYKAKLIGIDDVPDARGDKMSQDSMMKLKGMAAAGRSQGQHKQRIWVNISLSGIKIIDEKTGVIEHEHPVNKISFIARDVTDNRAFGYVCGGEGQHQFFAIKTGQQAEPLVVDLKDLFQVIYNVKKKEEEKKKIEEASKAVENGSEALMILDDQTNKLKSGVDQMDLFGDMSTPPDLNSPTESKDILLVDLNSEIDTNQNSLRENPFLTNGITSCSLPRPTPQASFLPENAFSANLNFFPTPNPDPFRDDPFTQPDQSTPSSFDSLKSPDQKKENSSSSSTPLSNGPLNGDVDYFGQQFDQISNRTGKQEAQAGPWPFSSSQTQPAVRTQNGVSEREQNGFSVKSSPNPFVGSPPKGLSIQNGVKQDLESSVQSSPHDSIAIIPPPQSTKPGRGRRTAKSSANDLLASDIFAPPVSEPSGQASPTGQPTALQPNPLDLFKTSAPAPVGPLVGLGGVTVTLPQAGPWNTASLVFNQSPSMAPGAMMGGQPSGFSQPVIFGTSPAVSGWNQPSPFAASTPPPVPVVWGPSASVAPNAWSTTSPLGNPFQSNIFPAPAVSTQPPSMHSSLLVTPPQPPPRAGPPKDISSDAFTALDPLGDKEIKDVKEMFKDFQLRQPPAVPARKGEQTSSGTLSAFASYFNSKVGIPQENADHDDFDANQLLNKINEPPKPAPRQVSLPVTKSTDNAFENPFFKDSFGSSQASVASSQPVSSEMYRDPFGNPFA
